# Measured values reported in PubChem BioAssay AID624297 (National Center for Advancing Translational Sciences (NCATS), 2012).
# Hit rate of the full screen: of about 340,000 compounds, about 6,200 (1.8%) were called active. Inconclusive means that the source gave no clear call. Such entries were picked first, then a sample of the others. Calls follow the shape of the dose curve; as a rule, active = well fitted activation curve with a large enough effect; inconclusive = small, poorly fitted or top-dose-only effect; inactive = no such curve, though single readings can be large or run the other way. Potencies of inconclusive entries are doubtful fits and often do not repeat.
# Assay: A quantitative high throughput screen for small molecules that induce DNA re-replication in SW480 colon adenocarcinoma cells. Also: nearly all actives have a fitted effect of over 55% in size.
# Conditions: Hoechst DNA content imaging, 48 h; series mostly up to 46.1 µM
# Outline: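 Readout is total intensity of Hoechst-stained nuclei, excited at 405 nm and collected at 500-530 nm. Compound treatment lasted 48 hr at 37 C in 5% CO2 before staining.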
# Potency is read from the fitted curve at half-maximal effect.
row,SMILES,Potency
1,CCOC(=O)CSc1nc2c(c(=O)[nH]1)C(C)(CC)Cc1ccccc1-2 (stereo not drawn),"inconclusive: 29.1 µM [activator, single point]"
2,C=CCc1ccccc1OCC(O)CNC(=O)c1ccccc1C(=O)O (stereo not drawn),inactive
3,Cc1ccc(N2C(=O)c3ccccc3NC2(C(=O)O)c2ccccc2)cc1Cl (stereo not drawn),inactive
4,COc1cc(C(=O)Nc2ccc(Br)cc2C(=O)c2cc(OC)c(OC)c(OC)c2)cc(OC)c1OC,active: 16.4 µM
5,O=C(COc1ccccc1F)NNC(=O)c1cccc(-n2cccc2)c1,inactive
6,CC(C)(C)NC(=O)CCN(/N=C/c1ccc([N+](=O)[O-])o1)C1=NS(=O)(=O)c2ccccc21,active: 13 µM
7,O=C(CSc1nnnn1CCCO)Nc1ccc2c(c1)OCO2,"inconclusive: 20.6 µM [activator, partial curve, poor fit]"
8,Cc1cc(NC(=S)Nc2cccnc2)ccc1Br,"inconclusive: 1.16 µM [activator, single point]"
9,Cc1ccccc1CNC(=O)CCn1nc(C)c2c(C)n(-c3ccccc3)nc2c1=O,"inconclusive: 2.06 µM [activator, full curve]"
10,COc1ccc(-c2nc3ccc(C)cc3c(=O)o2)cc1OC,"inconclusive: 13 µM [activator, single point]"
11,Cc1ccc(NC(=O)N(CCCN2CCOCC2)Cc2cccs2)cc1C,"inconclusive: 3.66 µM [activator, partial curve, poor fit]"
12,Cc1nn(Cc2ccc(C(=O)O)o2)c(C)c1[N+](=O)[O-],"inconclusive: 29.1 µM [activator, single point]"
13,Cc1cc(NS(=O)(=O)c2ccc(NC(=O)/C=C/c3c(F)cccc3Cl)cc2)nc(C)n1,"inconclusive: 29.1 µM [activator, single point]"
14,COc1cc(NS(=O)(=O)c2ccc(N/C=C(\C#N)c3nc4cc(Cl)ccc4o3)cc2)nc(OC)n1,"inconclusive: 2.59 µM [activator, full curve, poor fit]"
15,CCN1CCN(Cc2c(C(=O)N/N=C(\C)c3ccc(Cl)cc3)nnn2-c2nonc2N)CC1,"inconclusive: 18.4 µM [activator, single point]"
16,COc1ccc2c(c1)[nH]c1c(=O)n(Cc3ccncc3)cnc12,"inconclusive: 29.1 µM [activator, single point]"
17,CCn1cc(C(=O)NCc2ccc3c(c2)OCO3)c(=O)c2cc(S(=O)(=O)N(C)C)ccc21,inactive
18,Cc1ccccc1CNC(=O)C1CCCN(c2nnc(C)c3c(C)n(-c4ccccc4)nc23)C1 (stereo not drawn),"inconclusive: 29.1 µM [activator, single point]"
19,C/C(=N\NC(=O)CC#N)c1ccc(Oc2ccccc2)cc1,"inconclusive: 29.1 µM [activator, single point]"
20,CC(=O)Nc1ccc(Nc2c3ccccc3nc3ccccc23)cc1,active: 18.4 µM
21,CC(=O)c1cccc(NC(=S)N2CCC(Cc3ccccc3)CC2)c1,"inconclusive: 13 µM [activator, partial curve, poor fit]"
22,COC(=O)c1ccc(CO/N=C/c2ccccc2OC)cc1,inactive

# Laid out differently: entries from further up.
row | SMILES | Potency
9 | Cc1ccccc1CNC(=O)CCn1nc(C)c2c(C)n(-c3ccccc3)nc2c1=O | inconclusive: 2.06 µM [activator, full curve]
19 | C/C(=N\NC(=O)CC#N)c1ccc(Oc2ccccc2)cc1 | inconclusive: 29.1 µM [activator, single point]

# The list continues.

row,SMILES,Potency
1,CCOC(=O)[C@H]1[C@H]2COc3ccc(OC)cc3[C@@H]2N2C(=O)CN(CC3CCCO3)C(=O)[C@@]12C (stereo partly drawn),inactive
2,Cc1cccc(-c2c3c(=O)n(C)c(=O)n(C)c3cn2-c2ccc(O)cc2)c1,"inconclusive: 0.112 µM [activator, full curve, poor fit]"
3,CC(=O)c1ccc(NC(=O)COC(=O)CC2CC3CCC2C3)cc1 (stereo not drawn),"inconclusive: 3.66 µM [activator, partial curve]"
4,CC(C)(C)c1ccc(OCC(=O)NNC(=S)NC(=O)c2ccco2)c(Br)c1,"inconclusive: 20.6 µM [activator, partial curve, poor fit]"
5,Cc1c(Cc2ccccc2)sc(/N=C/c2c(O)ccc3ccccc23)c1C(N)=O,"inconclusive: 23.1 µM [activator, single point]"
6,O=C(COC(=O)/C=C/c1ccc2c(c1)OCO2)NCc1ccccc1,"inconclusive: 18.4 µM [activator, single point]"
7,COc1ccccc1N(CC(O)COc1c(C)cc(C)cc1C)S(=O)(=O)c1ccccc1 (stereo not drawn),"inconclusive: 29.1 µM [activator, single point]"
8,Cc1nc2c3cc(F)ccc3n(Cc3ccc(F)cc3)c2s1,"inconclusive: 16.4 µM [activator, single point]"
9,COC(=O)CSc1nc(N)c(C#N)c(-c2ccc(O)cc2)c1C#N,inactive
10,COc1cc(C2Nc3cccc4cccc(c34)N2)ccc1O,inactive
11,NC(=O)c1ccc(SCC(=O)OCC(=O)NCc2cccs2)c([N+](=O)[O-])c1,inactive
12,CC1CN(S(=O)(=O)c2cc(C(=O)N3CCCCC3C)ccc2Cl)CC(C)O1 (stereo not drawn),"inconclusive: 0.0651 µM [activator, full curve, poor fit]"
13,O=C(c1cc([N+](=O)[O-])cc([N+](=O)[O-])c1)N(Cc1nnc(-c2ccccc2Cl)o1)C1CC1,"inconclusive: 29.1 µM [activator, single point]"
14,COc1ccc2c(c1)CCN=C2Cc1ccc(OC)c(OC)c1,inactive
15,CCOC(=O)Nc1nnc(Cc2ccc(Cl)c(Cl)c2)s1,"inconclusive: 0.058 µM [activator, full curve, poor fit]"
16,Cc1ccc(C2(SCC(N)C(=O)O)c3ccccc3-c3ccccc32)cc1 (stereo not drawn),inactive
17,CCO[C@@H]1OC(C(N)=O)=C[C@H](C(C)(C)C)[C@H]1CCCO,"inconclusive: 3.26 µM [activator, single point]"
18,NC(=O)c1cc(S(=O)(=O)N2CCN(c3ccc([N+](=O)[O-])cc3)CC2)cs1,"inconclusive: 29.1 µM [activator, single point]"
19,Cc1cccc2c(C(=O)N3CCN(c4ccccn4)CC3)cc(-c3cccc(Br)c3)nc12,active: 16.4 µM
20,CCC(CO)NCc1ccc(Br)cc1 (stereo not drawn),"inconclusive: 3.66 µM [activator, single point]"
21,O=C(N1CCCC1)C12CC3CCC(CC(C3)C1)C2,"inconclusive: 23.1 µM [activator, single point]"
